Results taken from patent publication US20200131269A1.
No constants are given. Whether binding was seen depends on the method and setting. For part of these data: In cells and extracts the contact can be indirect. Some binding calls cover weakened binding; strength is not graded here. For part of these data: Tags and fused reporters may be left off the sequences shown.

Protein sequences, listed by entry. Tags and fused reporters are not part of them. Lines headed by an entry give the natural chain unless they say otherwise; changes in a name come on top.
UniProt Q13410: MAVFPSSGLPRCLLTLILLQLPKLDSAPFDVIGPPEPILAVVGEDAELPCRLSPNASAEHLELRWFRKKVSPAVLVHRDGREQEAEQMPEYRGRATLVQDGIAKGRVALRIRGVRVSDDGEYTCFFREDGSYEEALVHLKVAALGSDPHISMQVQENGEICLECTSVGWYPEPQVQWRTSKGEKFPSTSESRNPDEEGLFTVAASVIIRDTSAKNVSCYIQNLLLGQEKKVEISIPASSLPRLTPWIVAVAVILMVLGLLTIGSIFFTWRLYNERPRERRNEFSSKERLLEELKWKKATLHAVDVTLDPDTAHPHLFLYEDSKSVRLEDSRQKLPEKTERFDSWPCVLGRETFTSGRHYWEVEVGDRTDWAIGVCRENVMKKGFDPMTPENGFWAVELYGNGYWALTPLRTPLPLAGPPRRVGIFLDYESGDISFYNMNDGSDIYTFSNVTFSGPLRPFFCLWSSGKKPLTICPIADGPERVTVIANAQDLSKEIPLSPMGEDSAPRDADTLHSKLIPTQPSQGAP
UniProt Q7Z6A9: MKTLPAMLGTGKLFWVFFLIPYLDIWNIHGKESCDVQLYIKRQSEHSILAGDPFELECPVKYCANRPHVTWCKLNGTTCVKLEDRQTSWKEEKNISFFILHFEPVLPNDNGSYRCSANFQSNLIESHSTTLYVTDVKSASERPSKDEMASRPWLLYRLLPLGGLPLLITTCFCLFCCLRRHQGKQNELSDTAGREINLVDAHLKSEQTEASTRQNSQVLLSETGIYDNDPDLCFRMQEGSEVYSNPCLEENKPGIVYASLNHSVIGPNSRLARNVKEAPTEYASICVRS
UniProt P09382: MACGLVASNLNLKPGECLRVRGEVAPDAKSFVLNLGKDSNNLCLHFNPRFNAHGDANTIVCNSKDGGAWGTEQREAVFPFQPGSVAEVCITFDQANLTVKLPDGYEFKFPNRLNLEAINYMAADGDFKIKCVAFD
UniProt O60462: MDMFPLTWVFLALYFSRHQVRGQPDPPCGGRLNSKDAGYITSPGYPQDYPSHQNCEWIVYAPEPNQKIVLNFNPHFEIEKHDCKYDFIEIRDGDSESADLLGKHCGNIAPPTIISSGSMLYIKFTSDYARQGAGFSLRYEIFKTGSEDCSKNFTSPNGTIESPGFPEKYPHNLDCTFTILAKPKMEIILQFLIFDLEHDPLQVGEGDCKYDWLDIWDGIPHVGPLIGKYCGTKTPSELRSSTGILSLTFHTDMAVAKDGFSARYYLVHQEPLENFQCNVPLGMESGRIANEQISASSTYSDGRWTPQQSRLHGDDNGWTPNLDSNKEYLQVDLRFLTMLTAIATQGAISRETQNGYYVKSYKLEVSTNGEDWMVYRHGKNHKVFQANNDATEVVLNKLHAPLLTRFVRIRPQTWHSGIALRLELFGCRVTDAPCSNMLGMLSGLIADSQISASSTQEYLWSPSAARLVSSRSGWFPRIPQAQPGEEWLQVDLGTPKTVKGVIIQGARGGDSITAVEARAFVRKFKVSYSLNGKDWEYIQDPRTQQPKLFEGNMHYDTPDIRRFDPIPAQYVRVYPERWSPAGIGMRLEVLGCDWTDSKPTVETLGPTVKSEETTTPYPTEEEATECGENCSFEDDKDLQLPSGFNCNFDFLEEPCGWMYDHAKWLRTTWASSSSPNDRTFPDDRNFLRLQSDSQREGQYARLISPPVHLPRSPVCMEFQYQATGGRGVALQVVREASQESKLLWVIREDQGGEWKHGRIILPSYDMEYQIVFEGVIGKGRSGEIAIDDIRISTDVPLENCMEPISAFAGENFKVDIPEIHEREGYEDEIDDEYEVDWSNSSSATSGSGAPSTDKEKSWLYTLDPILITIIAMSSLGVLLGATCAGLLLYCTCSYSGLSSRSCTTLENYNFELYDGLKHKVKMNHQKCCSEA

Assays:
[1] = molecular target: BTN1A1-ECD-Fc (human); assay: SPR (Biacore), BTN1A1-Fc captured on protein A-coated chip, BTLA at 0.4-6.4 µM, dose-dependent negative signal
[2] = molecular target: T1, BTN1A1-Flag (human) (UniProt Q13410); assay: co-immunoprecipitation from HEK293T cell lysates, both directions
T1 sequence: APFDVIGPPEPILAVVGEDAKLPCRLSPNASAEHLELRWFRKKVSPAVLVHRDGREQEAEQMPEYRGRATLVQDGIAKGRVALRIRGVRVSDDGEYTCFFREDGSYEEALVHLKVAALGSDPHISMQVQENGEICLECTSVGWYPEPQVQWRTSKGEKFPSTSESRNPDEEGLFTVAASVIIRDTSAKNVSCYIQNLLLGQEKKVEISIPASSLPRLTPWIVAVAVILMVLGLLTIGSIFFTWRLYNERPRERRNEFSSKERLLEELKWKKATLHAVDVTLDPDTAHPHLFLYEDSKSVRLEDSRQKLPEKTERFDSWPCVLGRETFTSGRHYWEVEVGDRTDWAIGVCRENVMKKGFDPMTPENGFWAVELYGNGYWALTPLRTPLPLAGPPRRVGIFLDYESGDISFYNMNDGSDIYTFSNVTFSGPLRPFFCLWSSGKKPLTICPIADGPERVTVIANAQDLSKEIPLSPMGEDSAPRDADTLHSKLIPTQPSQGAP

[3] = molecular target: T1, BTN1A1-Flag (human); assay: co-immunoprecipitation, legend of FIGS. 2A-C
[4] = molecular target: T1, BTN1A1-Flag (human); assay: co-immunoprecipitation from HEK293T cells, both directions (Nrp-2 data not shown in FIG. 5)
[5] = molecular target: T1, BTN1A1-Flag (human); assay: co-immunoprecipitation from HEK293T cells, both directions
[6] = molecular target: T1, BTN1A1-Flag (human); assay: co-immunoprecipitation, title of FIG. 5

BTLA-His (from UniProt Q7Z6A9 31-157) (receptor)
binding [1]: binds

Myc- and Flag-double tagged Gal-1 (from UniProt P09382 1-135) (ligand)
binding [2]: binds
binding [3]: binds

Nrp-2-Myc (from UniProt O60462 21-931) (receptor)
binding [4]: binds

BTLA-Myc (from UniProt Q7Z6A9 31-289) (receptor)
binding [5]: binds
binding [6]: binds
